Data taken from the supplement of paper PMC3353916.
This is a noisy data set.

Test system: Sindbis virus TE/5'2J-GFP
Assay: percent infected (GFP+ in RFP+ ISG-expressing cells); higher = more infection (less antiviral activity)
Conditions: experiment: primary screen (single well)

| Sequence | percent infected (BHK/HA-Zeo (control)) | percent infected (BHK/NZAP-Zeo (ZAP)) |
| --- | --- | --- |
| MGVNAVHWFRKGLRLHDNPALKECIQGADTIRCVYILDPWFAGSSNVGINRWRFLLQCLEDLDANLRKLNSRLFVIRGQPADVFPRLFKEWNITKLSIEYDSEPFGKERDAAIKKLATEAGVEVIVRISHTLYDLDKIIELNGGQPPLTYKRFQTLISKMEPLEIPVETITSEVIEKCTTPLSDDHDEKYGVPSLEELGFDTDGLSSAVWPGGETEALTRLERHLERKAWVANFERPRMNANSLLASPTGLSPYLRFGCLSCRLFYFKLTDLYKKVKKNSSPPLSLYGQLLWREFFYTAATNNPRFDKMEGNPICVQIPWDKNPEALAKWAEGRTGFPWIDAIMTQLRQEGWIHHLARHAVACFLTRGDLWISWEEGMKVFEELLLDADWSINAGSWMWLSCSSFFQQFFHCYCPVGFGRRTDPNGDYIRRYLPVLRGFPAKYIYDPWNAPEGIQKVAKCLIGVNYPKPMVNHAEASRLNIERMKQIYQQLSRYRGLGLLASVPSNPNGNGGFMGYSAENIPGCSSSGSCSQGSGILHYAHGDSQQTHLLKQGRSSMGTGLSGGKRPSQEEDTQSIGPKVQRQSTN [CRY1] | 98.3% | 96.3% |
| MHLCGGNGLLTQTDPKEQQRQLKKQKNRAAAQRSRQKHTDKADALHQQHESLEKDNLALRKEIQSLQAELAWWSRTLHVHERLCPMDCASCSAPGLLGCWDQAEGLLGPGPQGQHGCREQLELFQTPGSCYPAQPLSPGPQPHDSPSLLQCPLPSLSLGPAVVAEPPVQLSPSPLLFASHTGSSLQGSSSKLSALQPSLTAQTAPPQPLELEHPTRGKLGSSPDNPSSALGLARLQSREHKPALSAATWQGLVVDPSPHPLLAFPLLSSAQVHF [BATF2] | 90.7% | 80.5% |
| MHRRRSRSCREDQKPVMDDQRDLISNNEQLPMLGRRPGAPESKCSRGALYTGFSILVTLLLAGQATTAYFLYQQQGRLDKLTVTSQNLQLENLRMKLPKPPKPVSKMRMATPLLMQALPMGALPQGPMQNATKYGNMTEDHVMHLLQNADPLKVYPPLKGSFPENLRHLKNTMETIDWKVFESWMHHWLLFEMSRHSLEQKPTDAPPKVLTKCQEEVSHIPAVHPGSFRPKCDENGNYLPLQCYGSIGYCWCVFPNGTEVPNTRSRGHHNCSESLELEDPSSGLGVTKQDLGPVPM [CD74] | 94.8% | 88.2% |
| MIAAQAKLVYQLNKYYTERCQARKAAIAKTIREVCKVVSDVLKEVEVQEPRFISSLSEIDARYEGLEVISPTEFEVVLYLNQMGVFNFVDDGSLPGCAVLKLSDGRKRSMSLWVEFITASGYLSARKIRSRFQTLVAQAVDKCSYRDVVKMIADTSEVKLRIRERYVVQITPAFKCTGIWPRSAAQWPMPHIPWPGPNRVAEVKAEGFNLLSKECYSLTGKQSSAESDAWVLQFGEAENRLLMGGCRNKCLSVLKTLRDRHLELPGQPLNNYHMKTLLLYECEKHPRETDWDESCLGDRLNGILLQLISCLQCRRCPHYFLPNLDLFQGKPHSALESAAKQTWRLAREILTNPKSLDKL [MAB21L2] | 92.4% | 64.2% |
| MIASHLLAYFFTELNHDQVQKVDQYLYHMRLSDETLLEISKRFRKEMEKGLGATTHPTAAVKMLPTFVRSTPDGTEHGEFLALDLGGTNFRVLWVKVTDNGLQKVEMENQIYAIPEDIMRGSGTQLFDHIAECLANFMDKLQIKDKKLPLGFTFSFPCHQTKLDESFLVSWTKGFKSSGVEGRDVVALIRKAIQRRGDFDIDIVAVVNDTVGTMMTCGYDDHNCEIGLIVGTGSNACYMEEMRHIDMVEGDEGRMCINMEWGAFGDDGSLNDIRTEFDQEIDMGSLNPGKQLFEKMISGMYMGELVRLILVKMAKEELLFGGKLSPELLNTGRFETKDISDIEGEKDGIRKAREVLMRLGLDPTQEDCVATHRICQIVSTRSASLCAATLAAVLQRIKENKGEERLRSTIGVDGSVYKKHPHFAKRLHKTVRRLVPGCDVRFLRSEDGSGKGAAMVTAVAYRLADQHRARQKTLEHLQLSHDQLLEVKRRMKVEMERGLSKETHASAPVKMLPTYVCATPDGTEKGDFLALDLGGTNFRVLLVRVRNGKWGGVEMHNKIYAIPQEVMHGTGDELFDHIVQCIADFLEYMGMKGVSLPLGFTFSFPCQQNSLDESILLKWTKGFKASGCEGEDVVTLLKEAIHRREEFDLDVVAVVNDTVGTMMTCGFEDPHCEVGLIVGTGSNACYMEEMRNVELVEGEEGRMCVNMEWGAFGDNGCLDDFRTEFDVAVDELSLNPGKQRFEKMISGMYLGEIVRNILIDFTKRGLLFRGRISERLKTRGIFETKFLSQIESDCLALLQVRAILQHLGLESTCDDSIIVKEVCTVVARRAAQLCGAGMAAVVDRIRENRGLDALKVTVGVDGTLYKLHPHFAKVMHETVKDLAPKCDVSFLQSEDGSGKGAALITAVACRIREAGQR [HK2] | 92.5% | 94.5% |
| MKEDCLPSSHVPISDSKSIQKSELLGLLKTYNCYHEGKSFQLRHREEEGTLIIEGLLNIAWGLRRPIRLQMQDDREQVHLPSTSWMPRRPSCPLKEPSPQNGNITAQGPSIQPVHKAESSTDSSGPLEEAEEAPQLMRTKSDASCMSQRRPKCRAPGEAQRIRRHRFSINGHFYNHKTSVFTPAYGSVTNVRVNSTMTTLQVLTLLLNKFRVEDGPSEFALYIVHESGERTKLKDCEYPLISRILHGPCEKIARIFLMEADLGVEVPHEVAQYIKFEMPVLDSFVEKLKEEEEREIIKLTMKFQALRLTMLQRLEQLVEAK [RASSF4] | 97.5% | 77.1% |
| MKIFLPVLLAALLGVERASSLMCFSCLNQKSNLYCLKPTICSDQDNYCVTVSASAGIGNLVTFGHSLSKTCSPACPIPEGVNVGVASMGISCCQSFLCNFSAADGGLRASVTLLGAGLLLSLLPALLRFGP [LY6E] | 97.8% | 95.2% |
| MKLCVTVLSLLMLVAAFCSPALSAPMGSDPPTACCFSYTARKLPRNFVVDYYETSSLCSQPAVVFQTKRSKQVCADPSESWVQEYVYDLELN [CCL4] | 96.1% | 96% |
| MKLLTGLVFCSLVLGVSSRSFFSFLGEAFDGARDMWRAYSDMREANYIGSDKYFHARGNYDAAKRGPGGAWAAEVITDARENIQRFFGHGAEDSLADQAANEWGRSGKDPNHFRPAGLPEKY [SAA1] | 92.2% | 87.3% |
| MKLRSSHNASKTLNANNMETLIECQSEGDIKEHPLLASCESEDSICQLIEVKKRKKVLSWPFLMRRLSPASDFSGALETDLKASLFDQPLSIICGDSDTLPRPIQDILTILCLKGPSTEGIFRRAANEKARKELKEELNSGDAVDLERLPVHLLAVVFKDFLRSIPRKLLSSDLFEEWMGALEMQDEEDRIEALKQVADKLPRPNLLLLKHLVYVLHLISKNSEVNRMDSSNLAICIGPNMLTLENDQSLSFEAQKDLNNKVKTLVEFLIDNCFEIFGENIPVHSSITSDDSLEHTDSSDVSTLQNDSAYDSNDPDVESNSSSGISSPSRQPQVPMATAAGLDSAGPQDAREVSPEPIVSTVARLKSSLAQPDRRYSEPSMPSSQECLESRVTNQTLTKSEGDFPVPRVGSRLESEEAEDPFPEEVFPAVQGKTKRPVDLKIKNLAPGSVLPRALVLKAFSSSSLDASSDSSPVASPSSPKRNFFSRHQSFTTKTEKGKPSREIKKHSMSFTFAPHKKVLTKNLSAGSGKSQDFTRDHVPRGVRKESQLAGRIVQENGCETHNQTARGFCLRPHALSVDDVFQGADWERPGSPPSYEEAMQGPAARLVASESQTVGSMTVGSMRARMLEAHCLLPPLPPAHHVEDSRHRGSKEPLPGHGLSPLPERWKQSRTVHASGDSLGHVSGPGRPELLPLRTVSESVQRNKRDCLVRRCSQPVFEADQFQYAKESYI [TAGAP] | 95.1% | 81.6% |
| MKLVSVALMYLGSLAFLGADTARLDVASEFRKKWNKWALSRGKRELRMSSSYPTGLADVKAGPAQTLIRPQDMKGASRSPEDSSPDAARIRVKRYRQSMNNFQGLRSFGCRFGTCTVQKLAHQIYQFTDKDKDNVAPRSKISPQGYGRRRRRSLPEAGPGRTLVSSKPQAHGAPAPPSGSAPHFL [ADM] | 97.3% | 92.8% |

Full records from above. Values in the order: percent infected (BHK/HA-Zeo (control))	percent infected (BHK/NZAP-Zeo (ZAP))
MKLLTGLVFCSLVLGVSSRSFFSFLGEAFDGARDMWRAYSDMREANYIGSDKYFHARGNYDAAKRGPGGAWAAEVITDARENIQRFFGHGAEDSLADQAANEWGRSGKDPNHFRPAGLPEKY [SAA1] is listed with 92.2%	87.3%
MIAAQAKLVYQLNKYYTERCQARKAAIAKTIREVCKVVSDVLKEVEVQEPRFISSLSEIDARYEGLEVISPTEFEVVLYLNQMGVFNFVDDGSLPGCAVLKLSDGRKRSMSLWVEFITASGYLSARKIRSRFQTLVAQAVDKCSYRDVVKMIADTSEVKLRIRERYVVQITPAFKCTGIWPRSAAQWPMPHIPWPGPNRVAEVKAEGFNLLSKECYSLTGKQSSAESDAWVLQFGEAENRLLMGGCRNKCLSVLKTLRDRHLELPGQPLNNYHMKTLLLYECEKHPRETDWDESCLGDRLNGILLQLISCLQCRRCPHYFLPNLDLFQGKPHSALESAAKQTWRLAREILTNPKSLDKL [MAB21L2] is listed with 92.4%	64.2%
